Results from PubChem BioAssay AID901 (National Center for Advancing Translational Sciences (NCATS), 2007).
The other results are listed elsewhere or left out. Shown are side measurements of this screen, not its main read-out; they come without a call. Compounds called inactive in the main read-out are mostly missing here. Words in brackets tell the shape of the fitted curve; partial curves, single points and poor fits give uncertain potencies.

Assay: qHTS Assay for Identifying the Cell-Membrane Permeable IMPase Inhibitors
Conditions: CHO-M1 cells, IP1 accumulation, HTRF TR-FRET ratio; measured here: donor channel 620 nm AC50

Structure (SMILES) | AC50
Cc1ccc2cc(C#N)c(SCC(=O)NCC3CCCO3)nc2c1 (stereo not drawn) | 31.6 µM [rising, single point]
Cc1cccc(OCC(=O)N2CCN(C(=O)CCC3CCCC3)CC2)c1 | 1.58 µM [rising, partial curve, poor fit]
COCCNC(=O)c1c(N)sc2c1CCCC2 | 5.01 µM [falling, single point]
CCCCNS(=O)(=O)c1ccc(OC)cc1 | 1.58 µM [falling, full curve]
Cn1c(SCC(=O)NCCc2ccccc2)nnc1-c1ccncc1 | 5.01 µM [rising, single point]
CCCCS(=O)(=O)/C=C/[C@H]1[C@H](S(=O)(=O)CCCC)[C@H]2C=C[C@@H]1C2 | 0.0316 µM [falling, single point]
C/C(=N\NC(=O)C1CC1c1ccccc1)c1ccc(C)s1 (stereo not drawn) | 0.251 µM [falling, full curve]
O=S(=O)(NCCOc1ccc(F)cc1)c1ccc2c(c1)OCCO2 | 1.26 µM [rising, full curve, poor fit]
COC(=O)c1ccc(S(=O)(=O)NCc2cccc(OC)c2)n1C | 0.0251 µM [falling, full curve, poor fit]
CC1CN(C2CCN(C(=O)COc3ccccc3)CC2)CC(C)O1 (stereo not drawn) | 3.55 µM [rising, single point]
CC(C)(C)CC(=O)OCC(=O)Nc1cc(C(C)(C)C)nn1-c1ccccc1 | 6.31 µM [falling, single point]
COc1ccc2c(c1)-c1c(sn(-c3ccc(OC)c(OC)c3)c1=S)C(C)(C)N2 | 0.0316 µM [falling, full curve, poor fit]
Clc1ccc(Sc2cc(N3CCOCC3)nc(-c3ccccc3)n2)cc1 | 3.16 µM [falling, partial curve]
O=C(c1cccc(Br)c1)N1CCN(C(=O)N2CCOCC2)CC1 | 7.94 µM [falling, partial curve]
CCN1C(=O)CSc2ccc(C(=O)NCc3ccco3)cc21 | 0.00631 µM [falling, full curve, poor fit]
Cc1ccccc1Cn1nc(C)c(NC(=O)c2cc3nc(-c4ccco4)cc(C(F)(F)F)n3n2)c1C | 0.0501 µM [rising, full curve, poor fit]
CCCCCCN1CC(O)=C(c2ccccc2)C1=N | 6.31 µM [falling, single point]
O=C1c2ccccc2C(=O)N1CSc1nnc(Nc2ccccc2F)s1 | 0.01 µM [rising, full curve, poor fit]
CCCOC(=O)c1ccc(Nc2nc(C)cc(=O)[nH]2)cc1 | 12.6 µM [falling, single point]
Cc1ccccc1S(=O)(=O)NC1OC(=O)C(Cl)=C1Cl (stereo not drawn) | 5.01 µM [rising, partial curve, poor fit]
CC1CCCN(C(=O)CSc2cnc3ccccc3n2)C1 (stereo not drawn) | 20 µM [rising, partial curve]
CCC1CCCCN1C(=O)CSc1nnc(-c2ccco2)o1 (stereo not drawn) | 12.6 µM [falling, partial curve, poor fit]
Cc1ccc(S(=O)(=O)N2CCCC2CO)cc1 (stereo not drawn) | 0.398 µM [rising, full curve, poor fit]

Structure (SMILES) | AC50
O=C(NCCN1CCOCC1)c1ccccc1-c1ccccc1 | 12.6 µM [rising, single point]
O=S(=O)(Nc1cnc2ccccc2c1)N1CCCCCC1 | 10 µM [falling, partial curve]
Cc1cccc(NC(=O)CSc2nc3ccccc3nc2N2CCCCC2)c1C | 5.62 µM [falling, single point]
CC(C)COP(=O)(c1ccc(N(C)C)cc1)C(O)c1ccccc1F (stereo not drawn) | 10 µM [falling, partial curve, poor fit]
Cc1cc2ccccc2c(=O)n1CC(=O)NCC(=O)N1CCN(c2cccc(Cl)c2)CC1 | 5.01 µM [falling, single point]
COc1ccccc1Cn1c(=O)c2ccccc2n2c(SCC(=O)N3CCCCC3)nnc12 | 35.5 µM [rising, single point]
CC1CCN(C(=O)c2ccc(-n3cnnn3)cc2)CC1 | 31.6 µM [rising, partial curve]
CC(=O)c1cccc(S(=O)(=O)NCC(c2ccco2)N2CCCCC2)c1 (stereo not drawn) | 0.02 µM [falling, full curve, poor fit]
COC(c1ccccc1)c1c(-c2ccccc2)nn(C)c1Cl (stereo not drawn) | 0.794 µM [falling, full curve, poor fit]
Cc1ccc2cccc(NC(=S)NC(=O)c3ccnn3C)c2n1 | 0.794 µM [falling, full curve]
Clc1ccc(CSc2nnc([C@@H]3CCCN3)o2)cc1 | 0.0251 µM [rising, full curve, poor fit]
Cc1ccc(C(=O)O)cc1N1C(=O)c2cccc3cc(Br)cc(c23)C1=O | 3.98 µM [rising, full curve]
CCOC(=O)C1(C)C=C(Nc2ccc(OC)cc2)C(=O)N1c1ccccc1 (stereo not drawn) | 0.794 µM [falling, full curve, poor fit]
Cc1cccc(NC(=S)NCc2cccs2)c1C | 0.0398 µM [rising, full curve, poor fit]
CC1=CC(=O)C=C(C)C1=NOS(=O)(=O)c1ccccc1 | 31.6 µM [falling, single point]
CC(C(=O)O)N1C(=O)c2cccc3cccc1c23 (stereo not drawn) | 35.5 µM [falling, single point]
COc1ccc(OC)c(NC(=O)Cc2c(C(=O)O)[nH]c3ccc(Cl)cc23)c1 | 0.0224 µM [falling, full curve, poor fit]
COC(=O)c1ccc2nc(NC(=O)CN3C(=O)CCC3=O)sc2c1 | 0.2 µM [falling, full curve, poor fit]
Cc1c(Cl)c(-c2n[nH]c(=S)n2-c2ccccc2)nn1C | 15.8 µM [rising, single point]
O=C(O)CCc1ccc(-c2ccc(Br)cc2)o1 | 12.6 µM [rising, partial curve]
Cc1cccc(C(=O)Nc2oc(-c3ccccc3)cc2C#N)c1 | 25.1 µM [falling, single point]
CCOC(=O)c1ccc(NC(=O)CN2C(=O)CCC2=O)cc1 | 0.1 µM [falling, partial curve]
COc1cccc(C(=O)c2sc(NC(C)C)nc2N)c1 | 0.398 µM [rising, full curve, poor fit]

Structure (SMILES) | AC50
Cc1ccc(OCCN2CCN(C(=O)CCC(=O)Nc3nnc(C)s3)CC2)cc1 | 0.224 µM [rising, partial curve]
Cc1nn(-c2ccccc2)c2[nH]c(=O)c(CNCCN3CCOCC3)cc12 | 0.794 µM [falling, full curve]
CC1(C)CC(=O)C2=C(C1)N=C1SCCC(=O)N1C2c1ccccc1 (stereo not drawn) | 0.158 µM [falling, full curve, poor fit]
Cc1ccc(CNC(=O)c2cc3c(=O)n(C)c4ccccc4c3n2C)cc1 | 31.6 µM [rising, single point]
CCCCCCNS(=O)(=O)c1ccc(OC)c(OC)c1 | 1 µM [falling, partial curve]
CCn1cc(CNC(=O)c2cc(-c3ccccc3OC)nc3ccccc23)c(C)n1 | 0.251 µM [falling, full curve, poor fit]
CCOc1cc2[nH]c(=O)n(CCCN3CCCC3=O)c(=O)c2cc1OCC | 0.0316 µM [falling, full curve, poor fit]
Cc1ccc2c(CC(=O)O)coc2c1 | 0.0316 µM [falling, full curve, poor fit]
CC1=C(C(=O)Nc2ccc(F)cc2)C(c2ccc(N(C)C)cc2)NC(=O)N1 (stereo not drawn) | 35.5 µM [falling, single point]
CCOc1ccccc1N1CCN(C(=O)C(Sc2ccccc2)c2ccccc2)CC1 (stereo not drawn) | 31.6 µM [rising, single point]
CCCCCCOc1cccc(N)c1 | 2.51 µM [falling, partial curve]
CC(=O)Nc1ccc(S(=O)(=O)N(c2cccnc2)S(=O)(=O)c2ccc(NC(C)=O)cc2)cc1 | 10 µM [falling, partial curve, poor fit]
CNC(=O)OCc1cccc(COC(=O)NC)n1 | 0.0794 µM [rising, full curve, poor fit]
N#C/C(=C\c1ccc(O)c(O)c1)C(N)=O | 20 µM [falling, partial curve, poor fit]
CCOC(=O)CSc1nc2c(c(=O)n(C)c(=O)n2C)n1CCCc1ccccc1 | 0.0126 µM [rising, partial curve, poor fit]
CCOC(=O)c1c(C)c(C#N)c2c3ccccc3ccn12 | 5.01 µM [rising, single point]
Cc1cccc(NC(=O)c2cc3c(C)nn(-c4ccccc4)c3s2)c1 | 0.447 µM [falling, partial curve, poor fit]
O=C(O)C1CCC(=O)N(C2CCCCC2)C1c1ccccc1 (stereo not drawn) | 5.01 µM [falling, single point]
CN(C)/C=N/C(=S)Nc1ccc(F)cc1 | 1.12 µM [falling, full curve, poor fit]
Clc1ccc(-c2n[nH]c3c2CCC3)c(Cl)c1 | 0.158 µM [falling, full curve, poor fit]
O=c1c2ccccc2nc(-c2ccc(Cl)cc2)n1CCCCOc1ccc(F)cc1 | 0.631 µM [falling, partial curve, poor fit]
CCNC(=S)N/N=C/c1cc(Br)cc(Br)c1OC | 2 µM [falling, full curve]

By substructure, the entries above with two or more sulfur atoms (5)
Structure (SMILES) | AC50
CCCCS(=O)(=O)/C=C/[C@H]1[C@H](S(=O)(=O)CCCC)[C@H]2C=C[C@@H]1C2 | 0.0316 µM [falling, single point]
COc1ccc2c(c1)-c1c(sn(-c3ccc(OC)c(OC)c3)c1=S)C(C)(C)N2 | 0.0316 µM [falling, full curve, poor fit]
O=C1c2ccccc2C(=O)N1CSc1nnc(Nc2ccccc2F)s1 | 0.01 µM [rising, full curve, poor fit]
Cc1cccc(NC(=S)NCc2cccs2)c1C | 0.0398 µM [rising, full curve, poor fit]
CC(=O)Nc1ccc(S(=O)(=O)N(c2cccnc2)S(=O)(=O)c2ccc(NC(C)=O)cc2)cc1 | 10 µM [falling, partial curve, poor fit]
